Assay results from patent publication US20120023600A1.
No constants are given. Whether binding was seen depends on the method and setting. Some binding calls cover weakened binding; strength is not graded here.

Columns and labels:
[1] = biological target: T1, rat DKK1 (Novartis) (rat) (UniProt A6I0Z0); experiment: SET (BioVeris)
T1 sequence: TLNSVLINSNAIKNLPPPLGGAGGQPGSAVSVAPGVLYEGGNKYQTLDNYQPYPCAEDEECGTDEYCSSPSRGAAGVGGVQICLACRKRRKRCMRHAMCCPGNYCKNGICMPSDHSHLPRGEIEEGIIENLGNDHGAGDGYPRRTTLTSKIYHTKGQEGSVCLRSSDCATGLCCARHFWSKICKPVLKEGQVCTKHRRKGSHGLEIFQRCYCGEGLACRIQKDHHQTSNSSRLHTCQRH

[2] = biological target: cynomolgus DKK1 (cynomolgus monkey (Macaca fascicularis)); experiment: SET (BioVeris)

binding [1]: binds
binding [2]: binds
B1: anti-DKK1/4 antibody (antibody, V domains shown)
VH: QVQLVESGGGLVQPGGSLRLSCAASGFTFSSYWMSWVRQAPGKGLEWVSGISYSGSNTHYADSVKGRFTISRDNSKNTLYLQMNSLRAEDTAVYYCARMGIDLDYWGQGTLVTVSS
VL: DIALTQPASVSGSPGQSITISCTGTSSDVGGFNYVSWYQQHPGKAPKLMIHDGSNRPSGVSNRFSGSKSGNTASLTISGLQAEDEADYYCQSWDVSPITAVFGGGTKLTVLG
